{
  "source": "paper PMC5944969",
  "about": "“Characterization of a nontypeable Haemophilus influenzae thermonuclease” (PLoS ONE, 2018)",
  "binders": {"B1": {"name": "NTHi nuclease (nontypeable Haemophilus influenzae thermonuclease), without signal sequence (enzyme, UniProt Q57519 21-178)", "chain": "CSREKNTCRVVKISDGDTLTCLTKGNKSIKVRLAEIDAPEKSQAFGQKSKKTLSDLVYQKNVRLARKGKDRYQRTLAVVYYQKQNINLEMVKQGMAWAYKQYSHDPIYLQAQENAQAKGIGLWADNNPIEPSQWRRQEKINMAFDYQTFPSSISLFPT"}},
  "key": {"[1]": {"target": "NTHi nuclease (nontypeable Haemophilus influenzae thermonuclease), without signal sequence (nontypeable Haemophilus influenzae (strain 2019)) (UniProt Q57519)", "assay": "static light scattering; DynaPro NanoStar, 2 ul quartz cuvette, sample filtered through 0.02 um; pH 7; molecular weight from SLS; both purified"}, "[2]": {"target": "NTHi nuclease (nontypeable Haemophilus influenzae thermonuclease), without signal sequence (nontypeable Haemophilus influenzae (strain 2019)) (UniProt Q57519)", "assay": "condition: 1.2–3.7 mg/ml at pH 7; 0.4–1.2 mg/ml at pH 9; SAXS; SIBYLS beamline, 10°C; 100 mM Tris pH 7 or 9, 150 mM NaCl, 5 mM CaCl, 5 mM DTT; Rg from Guinier analysis compared with Rg of the homology model (CRYSOL); both purified"}},
  "note": "These are yes or no findings as the source states them, for the method shown.",
  "data": [
    {"binder": "B1", "values": [
      {"measurement": "binding", "setting": "[1]", "result": "no binding"},
      {"measurement": "binding", "setting": "[2]", "result": "no binding"}
    ]}
  ]
}
